Measured values: publication PMC5214336
These are yes or no findings as the source states them, for the method shown. Binding seen in cells or lysates may run through a third protein. Some results given as binding are weak or reduced against the parent protein; the word gives no strength. Where a sequence is shown, tags or fusion partners need not be part of it.

T1: His6-tagged Sgt2 (S. cerevisiae) (UniProt Q12118)
T1 sequence: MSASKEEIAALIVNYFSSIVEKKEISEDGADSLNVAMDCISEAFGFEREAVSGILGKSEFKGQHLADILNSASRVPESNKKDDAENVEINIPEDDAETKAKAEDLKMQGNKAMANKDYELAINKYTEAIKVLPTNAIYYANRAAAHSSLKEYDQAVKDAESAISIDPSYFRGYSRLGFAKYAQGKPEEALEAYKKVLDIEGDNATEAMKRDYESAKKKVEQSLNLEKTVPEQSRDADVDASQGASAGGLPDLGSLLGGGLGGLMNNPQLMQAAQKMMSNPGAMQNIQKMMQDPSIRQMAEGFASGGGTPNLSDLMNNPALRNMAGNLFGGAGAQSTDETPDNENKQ

T2: His6-tagged Get3 (S. cerevisiae) (UniProt Q12154)
T2 sequence: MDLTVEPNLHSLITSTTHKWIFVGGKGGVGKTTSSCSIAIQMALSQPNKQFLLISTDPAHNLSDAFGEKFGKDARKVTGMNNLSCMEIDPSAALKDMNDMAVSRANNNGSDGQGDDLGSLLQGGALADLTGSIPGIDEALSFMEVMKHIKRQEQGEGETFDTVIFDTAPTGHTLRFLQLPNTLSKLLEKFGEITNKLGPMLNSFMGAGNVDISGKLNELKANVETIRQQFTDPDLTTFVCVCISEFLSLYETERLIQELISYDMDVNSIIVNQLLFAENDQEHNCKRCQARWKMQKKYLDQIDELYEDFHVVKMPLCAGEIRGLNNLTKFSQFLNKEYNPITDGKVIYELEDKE

T3: Bos1 model TA substrate (3xStrep-SUMO-Bos1p(207-244)-opsin) (S. cerevisiae) (UniProt P25385)
T3 sequence: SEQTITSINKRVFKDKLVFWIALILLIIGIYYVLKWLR


Tests used:
[1] = molecular target: T1, His6-tagged Sgt2 (S. cerevisiae); assay: pull-down; TA translated in E. coli S30 lysate with 35S-methionine and 2 µM His6-Sgt2 (30°C, 1 hr) together with an internal control; captured on Ni-NTA agarose at 4°C in capture buffer (50 mM KHEPES pH 7.5, 150 mM KOAc, 5 mM Mg(OAc)2, 10% glycerol, 5 mM β-ME, 20 mM imidazole); SDS-PAGE and autoradiography; efficiencies normalised to the control; only the target purified
[2] = molecular target: T2, His6-tagged Get3 (S. cerevisiae); assay: pull-down; TA translated in E. coli S30 lysate with 35S-methionine and 2 µM untagged Sgt2; then 2 mM ATP, 2 µM Get4/5 and 2 µM His6-Get3 for 1 hr; Get3•TA purified on Ni-NTA; only the target purified
[3] = molecular target: T3, Bos1 model TA substrate (3xStrep-SUMO-Bos1p(207-244)-opsin) (S. cerevisiae); assay: pull-down; TA translated in E. coli S30 lysate with His6-Sgt2, His6-Get4/5 and His6-Get3 added at the start (2 hr); captured by the 3xStrep tag of the TA on Strep-Tactin Sepharose, washed with GET buffer with 500 mM NaCl and GET buffer, eluted with biotin; SDS-PAGE and western blot against His6; only the binder purified

Binder	binding [1]	binding [2]	binding [3]
SEQTITSINKRVFKDKLVFWIALILLIIGIYYVLKWLR (domain or fragment, UniProt P25385 223-244) [Bos1 model TA substrate (3xStrep-SUMO-Bos1p(207-244)-opsin)]	binds	binds	–
SEQTITSINKRVFKDKLVFWIALILLIIGIYYVLKWLR (domain or fragment, UniProt P25385 223-244) [Bos1 construct lacking the N-terminal 3xStrep tag]	binds	–	–

Other lines, results leading:

binding [1]	binding [2]	binding [3]	Binder
–	–	binds	His6-tagged Get3 (enzyme, UniProt Q12154 1-354) MDLTVEPNLHSLITSTTHKWIFVGGKGGVGKTTSSCSIAIQMALSQPNKQFLLISTDPAHNLSDAFGEKFGKDARKVTGMNNLSCMEIDPSAALKDMNDMAVSRANNNGSDGQGDDLGSLLQGGALADLTGSIPGIDEALSFMEVMKHIKRQEQGEGETFDTVIFDTAPTGHTLRFLQLPNTLSKLLEKFGEITNKLGPMLNSFMGAGNVDISGKLNELKANVETIRQQFTDPDLTTFVCVCISEFLSLYETERLIQELISYDMDVNSIIVNQLLFAENDQEHNCKRCQARWKMQKKYLDQIDELYEDFHVVKMPLCAGEIRGLNNLTKFSQFLNKEYNPITDGKVIYELEDKE
–	–	no binding	His6-tagged Get4/5 (complex, UniProt Q12125 1-312; Q12285 1-212) chain 1: MVPAESNAVQAKLAKTLQRFENKIKAGDYYEAHQTLRTIANRYVRSKSYEHAIELISQGALSFLKAKQGGSGTDLIFYLLEVYDLAEVKVDDISVARLVRLIAELDPSEPNLKDVITGMNNWSIKFSEYKFGDPYLHNTIGSKLLEGDFVYEAERYFMLGTHDSMIKYVDLLWDWLCQVDDIEDSTVAEFFSRLVFNYLFISNISFAHESKDIFLERFIEKFHPKYEKIDKNGYEIVFFEDYSDLNFLQLLLITCQTKDKSYFLNLKNHYLDFSQAYKSELEFLGQEYFNIVAPKQTNFLQDMMSGFLGGSK chain 2: MSTSASGPEHEFVSKFLTLATLTEPKLPKSYTKPLKDVTNLGVPLPTLKYKYKQNRAKKLKLHQDQQGQDNAAVHLTLKKIQAPKFSIEHDFSPSDTILQIKQHLISEEKASHISEIKLLLKGKVLHDNLFLSDLKVTPANSTITVMIKPNPTISKEPEAEKSTNSPAPAPPQELTVPWDDIEALLKNNFENDQAAVRQVMERLQKGWSLAK
